Data as given in the supplement of paper PMC12067093, “Discovery and optimisation of a covalent ligand for TRIM25 and its application to targeted protein ubiquitination” (Chemical Science, 2025).
This is one part of the list.

Compound: Cc1cc(ccc1-c1ccccc1)C(=O)N1CCCN(CC1)C(=O)CCl [compound 10]
Test: probe-labelled cysteine peptide fold change vs DMSO (competition) (log2 fold change); higher = less target engagement (more negative = stronger competition)
Settings: THP-1, incubation time: 4 h
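Further: competitive profiling in live THP-1 cells: cysteine peptides tagged with an iodoacetamide desthiobiotin (IA-DTB) probe, intensity after compound treatment relative to DMSO-treated cells.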

Target | probe-labelled cysteine peptide fold change (10 µM) | probe-labelled cysteine peptide fold change (50 µM)
BCL10_O95999_57_ILSREDTEEISCR (UniProt O95999) | -0.0733 | -0.324
BIRC6_Q9NR09_3773_TAIENATVAFFLQCISCHPNNQK (UniProt Q9NR09) | 0.213 | 0.136
BOD1L1_Q8NFC6_876_CDMDSTNMDSNLKPEEVVHK (UniProt Q8NFC6) | 0.0401 | -0.148
BOP1_Q14137_532_ICHGKPVTQVTWHGR (UniProt Q14137) | -0.0256 | 0.63
BPNT1_O95861_42_TCATDLQTK (UniProt O95861) | -0.365 | -0.33
BIRC6_Q9NR09_4601_CDEERLDIMK (UniProt Q9NR09) | 0.0642 | -0.132
AZU1_P20160_68_FVMTAASCFQSQNPGVSTVVLGAYDLR (UniProt P20160) | -0.178 | 0.337
BOP1_Q14137_404_DLQPFPTCQALVYR (UniProt Q14137) | -0.119 | -0.479
BCAS3_Q9H6U6_442_GTSHVFPINPYGGQPCVR (UniProt Q9H6U6) | 0.16 | -0.00785
BRAP_Q7Z569_264_CTVCLER (UniProt Q7Z569) | 0.162 | -0.0218
BIRC6_Q9NR09_4183_HAQCLLR (UniProt Q9NR09) | 0.135 | -0.121
ATXN10_Q9UBB4_65_SSHAVELACRDPSQVENLASSLQLITECFR (UniProt Q9UBB4) | -0.202 | -0.0972
BPNT1_O95861_59_LAQMSICSSLAR (UniProt O95861) | -0.159 | 0.163
BPTF_Q12830_1969_IICPIGVPETPK (UniProt Q12830) | 0.148 | 0.0317
BDH1_Q02338_86_GFLVFAGCLMK (UniProt Q02338) | -0.408 | 0.234
BAZ1B_Q9UIG0_994_QGQNLWFLCDSQK (UniProt Q9UIG0) | 0.0364 | 0.0734
BAG5_Q9UL15_191_INFVMCEVNK (UniProt Q9UL15) | -0.0455 | -0.226
BACH1_O14867_557_LTPEQLDCIHDIR (UniProt O14867) | -0.28 | -0.134
BCOR_Q6W2J9_1311_QAQPSCAPASRPPAK (UniProt Q6W2J9) | -0.0417 | -0.0219
ATXN2_Q99700_892_RGPEVTSQGVQTSSPACK (UniProt Q99700) | -0.0651 | -0.133
AVL9_Q8NBF6_119_SVCVLSK (UniProt Q8NBF6) | -0.214 | 0.11

Target | probe-labelled cysteine peptide fold change (10 µM) | probe-labelled cysteine peptide fold change (50 µM)
BAG1_Q99933_213_EMETPLSALGIQDGCR (UniProt Q99933) | 0.036 | -0.287
BPNT1_O95861_249_KWDTCAPEVILHAVGGK (UniProt O95861) | -0.111 | 0.0123
BAG6_P46379_345+349_CNLACTPPR (UniProt P46379) | -0.175 | -0.352
BIRC6_Q9NR09_543_DLEELGANPCLTNSK (UniProt Q9NR09) | -0.334 | -0.207
BAP18_Q8IXM2_66_RFGDDLNHISCVIK (UniProt Q8IXM2) | 0.146 | -0.147
BIRC6_Q9NR09_3108_AFHDMGGVQLICNNMVTSTR (UniProt Q9NR09) | -0.156 | 0.211
BCOR_Q6W2J9_1525_HLLEYGADVNCSAQDGTRPLHDAVENDHLEIVR (UniProt Q6W2J9) | -0.0362 | 0.153
BLM_P54132_318_CLSTLK (UniProt P54132) | -0.0405 | -0.0942
BAZ1A_Q9NRL2_232_QHCEPQDGVIK (UniProt Q9NRL2) | -0.17 | -0.0315
BABAM2_Q9NXR7_245_IEHALGGSSALHIPAFPGGGCLIDYVPQVCHLLTNK (UniProt Q9NXR7) | -0.195 | -0.384
BLM_P54132_380_QISLQQQLIHVMEHICK (UniProt P54132) | 0.201 | 0.13
BARGIN_Q6ZT62_213_KVEQCRDEYLADLYHFVTK (UniProt Q6ZT62) | 0.0523 | 0.00893
ATXN7L3_Q14CW9_226_CPQHTDEQR (UniProt Q14CW9) | -0.319 | 0.172
BCKDHB_P21953_299_LGVSCEVIDLR (UniProt P21953) | -0.0102 | -0.0302
AXL_P30530_852_DSCSCLTAAEVHPAGR (UniProt P30530) | -0.0679 | -0.0354
AURKA_O14965_393_EVLEHPWITANSSKPSNCQNK (UniProt O14965) | -0.12 | -0.525
BAG2_O95816_142_SHLMSLYSACSSEVPHGPVDQK (UniProt O95816) | 0.233 | 0.256
BAZ2A_Q9UIF9_1660_SAAQVCLCLGQLER (UniProt Q9UIF9) | 0.0197 | 0.00975
BPTF_Q12830_1471_CELVSGESTGNCEDRLPVK (UniProt Q12830) | -0.216 | -0.229
BAG5_Q9UL15_166_ICAVQEIIEDCMK (UniProt Q9UL15) | -0.0972 | 0.0145
B4GALT3_O60512_190+209_EALRDEEWDCLFLHDVDLLPENDHNLYVCDPR (UniProt O60512) | -0.199 | 0.202

Target | probe-labelled cysteine peptide fold change (10 µM) | probe-labelled cysteine peptide fold change (50 µM)
BAG2_O95816_162_FQSIVIGCALEDQKK (UniProt O95816) | 0.0439 | -0.18
ATXN10_Q9UBB4_65_SSHAVELACR (UniProt Q9UBB4) | 0.0331 | 0.385
AVL9_Q8NBF6_409_GYLCLPYMALQQHHLLSDVTVR (UniProt Q8NBF6) | 0.0492 | 0.116
BRAT1_Q6PJG6_228_CQSPWTEALWVR (UniProt Q6PJG6) | -0.354 | -0.793
BAG6_P46379_349_CNLACTPPR (UniProt P46379) | -0.198 | -0.482
BAIAP2_Q9UQB8_202_QCAVAK (UniProt Q9UQB8) | -0.153 | -0.249
BIRC6_Q9NR09_381_GEHTQNVPLSVTLATSPAQFPCTDGTDR (UniProt Q9NR09) | -0.0316 | -0.166
B4GALT1_P15291_262_CFSQPR (UniProt P15291) | -0.177 | -0.0791
BRAT1_Q6PJG6_289_ALSCLGPTHMGPLALGILK (UniProt Q6PJG6) | -0.319 | -0.856
AURKB_Q96GD4_170_SCTFDEQR (UniProt Q96GD4) | -0.0608 | 0.205
B2M_P61769_45_SNFLNCYVSGFHPSDIEVDLLK (UniProt P61769) | -0.0551 | -0.127
BPNT1_O95861_243_ASAYVFASPGCKK (UniProt O95861) | -0.187 | -0.704
BAZ1B_Q9UIG0_1435_TEQCLVALLHK (UniProt Q9UIG0) | -0.093 | -0.0339
ATXN7L3_Q14CW9_226_CPQHTDEQRR (UniProt Q14CW9) | -0.0936 | -0.132
BRAP_Q7Z569_221_AQADADSFYMTCNGR (UniProt Q7Z569) | 0.13 | 0.0989
BIN1_O00499_47_ADETKDEQFEQCVQNFNK (UniProt O00499) | 0.0224 | -0.229
BCL10_O95999_57_EDTEEISCR (UniProt O95999) | 0.0353 | 0.0524
BIN2_Q9UBW5_496_ENENIHNQNPEELCTSPTLMTSQVASEPGEAK (UniProt Q9UBW5) | 0.0699 | -0.541
BCAP29_Q9UHQ4_171_SHGKDEECVLEAENK (UniProt Q9UHQ4) | -0.122 | -0.347
BCAR1_P56945_46_KGDIMTVLEQDTQGLDGWWLCSLHGR (UniProt P56945) | 0.292 | -0.0071
BRAT1_Q6PJG6_265_DPIPAAHSFVDLLLCVAR (UniProt Q6PJG6) | 0.07 | -0.312

Target | probe-labelled cysteine peptide fold change (10 µM) | probe-labelled cysteine peptide fold change (50 µM)
AZI2_Q9H6S1_10_MDALVEDDICILNHEK (UniProt Q9H6S1) | -0.339 | -0.235
BARGIN_Q6ZT62_631_CGMTTVLTLTGVSR (UniProt Q6ZT62) | 0.0702 | -0.0108
BIRC6_Q9NR09_4666_VCLSILNTWHGRPEEK (UniProt Q9NR09) | 0.0507 | 0.0823
BIRC6_Q9NR09_739_FAEEENLCIDSITPCADGIHLLVGLR (UniProt Q9NR09) | -0.04 | -0.122
BIRC2_Q13490_110_QLYPSCSFIQNLVSASLGSTSK (UniProt Q13490) | -0.0674 | -0.211
ATXN1L_P0C7T5_568_TTQLFSLPCHR (UniProt P0C7T5) | -0.104 | 0.176
BIRC6_Q9NR09_62_DGCMHCDADGLHSLSYHPALNAILAVTSR (UniProt Q9NR09) | 0.0345 | -0.0517
BAZ2A_Q9UIF9_1037_SEVEMEGPEECLGR (UniProt Q9UIF9) | -0.385 | -0.476
BARGIN_Q6ZT62_346_QTMASDPHSLEEFCSDPHAVAGALK (UniProt Q6ZT62) | -0.014 | 0.0458
BAZ1B_Q9UIG0_1175_MHVLLGMLDACIK (UniProt Q9UIG0) | -0.0243 | -0.0283
BLMH_Q13867_164_CFPESYTTEATR (UniProt Q13867) | -0.0235 | 0.0482
BAZ2A_Q9UIF9_917_AALHDPGFPSYCQSLK (UniProt Q9UIF9) | 0.0356 | 0.133
BCLAF1_Q9NYF8_688_CDSADLR (UniProt Q9NYF8) | -0.19 | -0.328
BIRC6_Q9NR09_613_TQGESISEQGSTDNESCTNSELNSPLVR (UniProt Q9NR09) | -0.291 | -0.0326
BAZ1A_Q9NRL2_586_GGFDATDDACMELR (UniProt Q9NRL2) | -0.11 | -0.152
BPGM_P07738_145_VCDVPLDQLPR (UniProt P07738) | -0.153 | 0.073
B4GALT3_O60512_119_YRPAGCEPR (UniProt O60512) | -0.0822 | 0.0489
BCKDHB_P21953_361_VCGYDTPFPHIFEPFYIPDK (UniProt P21953) | -0.0395 | 0.155
BOD1L1_Q8NFC6_2599_CEQDLTIK (UniProt Q8NFC6) | -0.37 | -0.337
BARGIN_Q6ZT62_110_ALEMSCAIQNQLAR (UniProt Q6ZT62) | 0.17 | 0.265
BCKDK_O14874_118_CLPFIIGCNPTILHVHELYIR (UniProt O14874) | 0.0121 | 0.126

Five records drawn at random from those above:
Target | probe-labelled cysteine peptide fold change (10 µM) | probe-labelled cysteine peptide fold change (50 µM)
BCKDK_O14874_118_CLPFIIGCNPTILHVHELYIR (UniProt O14874) | 0.0121 | 0.126
BCLAF1_Q9NYF8_688_CDSADLR (UniProt Q9NYF8) | -0.19 | -0.328
B4GALT3_O60512_119_YRPAGCEPR (UniProt O60512) | -0.0822 | 0.0489
BAZ1B_Q9UIG0_1175_MHVLLGMLDACIK (UniProt Q9UIG0) | -0.0243 | -0.0283
BLMH_Q13867_164_CFPESYTTEATR (UniProt Q13867) | -0.0235 | 0.0482
